Test results: patent publication US5262520A, “Peptides and antibodies that inhibit integrin-ligand binding” (The Scripps Research Institute, priority 1990, dated 1993)
Part of at least one peptide drawing is inferred or uncertain, most often the ends. Where no end group is shown, it is not given here.

By UniProt entry, the sequences of proteins in these tests, tags left out. Where a name states a change or a piece, a line headed by the entry shows the natural chain unless it says otherwise.
UniProt P08514: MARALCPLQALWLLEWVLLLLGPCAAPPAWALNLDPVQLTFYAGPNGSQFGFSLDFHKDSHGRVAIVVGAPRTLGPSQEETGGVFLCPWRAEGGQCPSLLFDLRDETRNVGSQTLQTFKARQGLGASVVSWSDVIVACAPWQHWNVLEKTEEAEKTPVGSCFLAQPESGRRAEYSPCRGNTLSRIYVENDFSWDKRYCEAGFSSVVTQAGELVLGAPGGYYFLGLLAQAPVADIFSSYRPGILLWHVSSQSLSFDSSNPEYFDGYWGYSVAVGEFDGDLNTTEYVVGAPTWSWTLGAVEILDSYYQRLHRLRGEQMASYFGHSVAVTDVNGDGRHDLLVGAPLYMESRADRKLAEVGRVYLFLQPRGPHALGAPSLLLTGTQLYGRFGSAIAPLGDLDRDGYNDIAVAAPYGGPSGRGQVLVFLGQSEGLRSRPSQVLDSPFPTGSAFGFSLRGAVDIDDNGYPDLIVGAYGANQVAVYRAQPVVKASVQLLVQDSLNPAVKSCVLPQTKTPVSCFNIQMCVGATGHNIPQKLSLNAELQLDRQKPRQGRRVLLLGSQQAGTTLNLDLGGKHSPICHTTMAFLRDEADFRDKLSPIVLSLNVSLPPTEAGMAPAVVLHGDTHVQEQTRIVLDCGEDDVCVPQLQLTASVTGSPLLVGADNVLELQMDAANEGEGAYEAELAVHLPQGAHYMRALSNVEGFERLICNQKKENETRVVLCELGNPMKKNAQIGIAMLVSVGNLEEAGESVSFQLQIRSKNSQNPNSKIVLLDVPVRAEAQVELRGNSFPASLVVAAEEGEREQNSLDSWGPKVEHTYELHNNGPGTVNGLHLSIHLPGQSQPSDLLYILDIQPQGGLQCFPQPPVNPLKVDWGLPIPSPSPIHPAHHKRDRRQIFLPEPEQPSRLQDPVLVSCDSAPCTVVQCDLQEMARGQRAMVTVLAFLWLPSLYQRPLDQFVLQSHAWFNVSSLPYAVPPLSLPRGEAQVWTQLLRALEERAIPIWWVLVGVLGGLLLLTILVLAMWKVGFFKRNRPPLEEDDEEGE

Key:
platelet aggregation = format: cell-based, human
[1] = target: T1, ^125 I-fibrinogen with immobilized p1 peptide (Homo sapiens, UniProt P08514); assay: Inhibition of 125I-fibrinogen binding to immobilized p1 peptide; conditions: text summary of Table 7
T1 construct: for GPIIb from residue 296; made in house; no expression host
Protocol: Polypeptides p1, p1', and controls were immobilized on 96-well Immulon-2 microtiter plates (Dynatech Laboratories, VA). The peptides were added to the plates and maintained at 4 C for 24 hours after which the plates were washed with Hepes-Tyrode's buffer (pH 7.4) containing Tween-20. The plates were post-coated with 3% BSA for 1 hr. at 37° C. and then washed again. ^125 I-fibrinogen (50 μL at 50 nM) was allowed to bind to the peptide-coated wells for 24 hours at 22° C. which were then extensively washed and counted for bound radioactivity.
Cation dependence of binding was established in the presence of EDTA (5 mM). Two gamma-chain peptides of fibrinogen (HHLGGAKQAGDV and KYGGHHLGGAHQAGDV) inhibited the interaction of fibrinogen with immobilized pl. […] These observations are consistent with the hypothesis that RGD gamma-chain peptides interact with the same sites in GPIIb-IIIa.

Sequence: AVTDVNGDGRHDLLVGAPLYM [p2]
- inhibition of platelet aggregation (in words) (platelet aggregation; ADP stimulated platelet rich plasma): measurable, but lower degree of inhibition
- less effective than polypeptide p1 in inhibiting platelet aggregation (platelet aggregation; relative to p1, same aggregation assay): about 80%

Sequence: HHLGGAKQAGDV [HHLGGAKQAGDV]
- inhibition of fibrinogen binding to immobilized p1 (in words) [1]: inhibited

Sequence: YVTAGRGDSPASSK [YVTAGRGDSPASSK]
- inhibition of fibrinogen binding to immobilized p1 (in words) [1]: inhibit fibrinogen binding
